Reference: the supplement of paper PMC4604168 (melanoma cell lines)
The other results are listed elsewhere or left out. Repeats are few or missing, and single values can be far off.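 Cells were imaged in 1,536-well plates, and nuclei stained with an antibody against cleaved PARP were counted against all DNA-stained nuclei to give the apoptosis fraction. Screening doses were chosen to leave most cells alive, and resting and induced cleaved-PARP levels differ strongly between cell lines.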

Test system: CBRC017 (line from a melanoma biopsy)
Assay: cleaved PARP positive nuclei fraction relative to DMSO control; melanoma cells; higher = more apoptosis
Conditions: library dose: low library concentration; 72 h

| Compound | cleaved PARP positive nuclei fraction |
| --- | --- |
| CCN(CC)CCNC(=O)c1c(C)[nH]c(/C=C2\C(=O)Nc3ccc(F)cc32)c1C [sunitinib] + COc1ccc(COc2ccc(Cc3cnc(N)nc3N)cc2OC)cc1 [GW2580] (first compound 0.4 µM, partner dose 1 µM) | 111% |
| NC(=O)c1ccc(N(C(N)=O)c2c(F)cccc2F)nc1-c1ccc(F)cc1F + O=c1cc(-c2cccc3c2Sc2ccccc2S3)oc(N2CCOCC2)c1 [KU55933] (first compound 0.4 µM, partner dose 1 µM) | 85.2% |
| CCN(CC)CCNC(=O)c1c(C)[nH]c(/C=C2\C(=O)Nc3ccc(F)cc32)c1C [sunitinib] + c1cc(-c2cnn3cc(-c4ccc(OCCN5CCCCC5)cc4)cnc23)ccn1 [Dorsomorphin] (first compound 0.4 µM, partner dose 0.4 µM) | 99.6% |
| C[C@]1(O)C[C@@H](c2nc(-c3ccc4ccc(-c5ccccc5)nc4c3)c3c(N)nccn32)C1 + Oc1nc(-c2ccc(C(F)(F)F)cc2)nc2c1CSCC2 [XAV939] (first compound 0.4 µM, partner dose 2 µM) | 115% |
| C[C@@H](N)c1ccc(C(=O)Nc2ccnc3[nH]ccc23)cc1 + COc1ccc(-c2ccc3c(N4CCOCC4)nc(N4C[C@@H](C)O[C@@H](C)C4)nc3n2)cc1CO [KU0063794] (first compound 0.4 µM, partner dose 0.02 µM) | 204% |
| CCCCCCCCc1ccc(CCC(N)(CO)CO)cc1 [fingolimod] + O=C(O)C(=O)Nc1sc2c(c1C(=O)O)CCNC2 [TCS401] (first compound 2 µM, partner dose 1.66667 µM) | 182% |

Quoted from the results shown for reference:

| Compound | cleaved PARP positive nuclei fraction |
| --- | --- |
| C[C@]1(O)C[C@@H](c2nc(-c3ccc4ccc(-c5ccccc5)nc4c3)c3c(N)nccn32)C1 + Oc1nc(-c2ccc(C(F)(F)F)cc2)nc2c1CSCC2 [XAV939] (first compound 0.4 µM, partner dose 2 µM) | 115% |
| C[C@@H](N)c1ccc(C(=O)Nc2ccnc3[nH]ccc23)cc1 + COc1ccc(-c2ccc3c(N4CCOCC4)nc(N4C[C@@H](C)O[C@@H](C)C4)nc3n2)cc1CO [KU0063794] (first compound 0.4 µM, partner dose 0.02 µM) | 204% |
